Laboratory results as given in article PMC10175282.
Results are given in words; binding and its absence hold for the method and conditions named. Binding seen in cells or lysates may run through a third protein. Here binding means that the protein was enriched with, or labelled near, the bait; the list need not be complete.

T1: Ubp3-FTpA (S. cerevisiae) (UniProt Q01477)
T1 sequence: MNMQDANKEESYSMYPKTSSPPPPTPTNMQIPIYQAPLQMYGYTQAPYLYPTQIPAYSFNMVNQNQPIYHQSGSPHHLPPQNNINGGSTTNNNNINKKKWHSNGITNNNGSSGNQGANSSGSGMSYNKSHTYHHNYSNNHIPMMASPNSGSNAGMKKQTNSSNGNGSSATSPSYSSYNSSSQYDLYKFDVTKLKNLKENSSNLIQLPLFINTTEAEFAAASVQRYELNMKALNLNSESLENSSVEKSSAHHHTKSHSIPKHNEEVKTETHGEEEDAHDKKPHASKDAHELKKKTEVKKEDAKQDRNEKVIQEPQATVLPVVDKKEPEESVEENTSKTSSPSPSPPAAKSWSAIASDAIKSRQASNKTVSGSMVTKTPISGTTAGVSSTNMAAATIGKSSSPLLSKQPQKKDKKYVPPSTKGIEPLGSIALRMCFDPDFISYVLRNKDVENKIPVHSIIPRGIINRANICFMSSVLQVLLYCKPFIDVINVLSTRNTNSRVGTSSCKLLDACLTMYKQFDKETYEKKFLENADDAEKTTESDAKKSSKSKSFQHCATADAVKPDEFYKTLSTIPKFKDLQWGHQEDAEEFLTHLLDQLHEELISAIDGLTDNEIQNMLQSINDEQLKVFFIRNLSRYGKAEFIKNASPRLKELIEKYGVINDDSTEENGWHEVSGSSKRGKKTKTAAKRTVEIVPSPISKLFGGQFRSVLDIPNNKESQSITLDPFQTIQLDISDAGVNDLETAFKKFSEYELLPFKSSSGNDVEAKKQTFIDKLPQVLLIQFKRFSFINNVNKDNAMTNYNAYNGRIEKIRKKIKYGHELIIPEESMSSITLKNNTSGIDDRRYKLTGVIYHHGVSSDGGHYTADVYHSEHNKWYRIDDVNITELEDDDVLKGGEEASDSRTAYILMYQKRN

T2: Otu2-FTpA (S. cerevisiae) (UniProt P38747)
T2 sequence: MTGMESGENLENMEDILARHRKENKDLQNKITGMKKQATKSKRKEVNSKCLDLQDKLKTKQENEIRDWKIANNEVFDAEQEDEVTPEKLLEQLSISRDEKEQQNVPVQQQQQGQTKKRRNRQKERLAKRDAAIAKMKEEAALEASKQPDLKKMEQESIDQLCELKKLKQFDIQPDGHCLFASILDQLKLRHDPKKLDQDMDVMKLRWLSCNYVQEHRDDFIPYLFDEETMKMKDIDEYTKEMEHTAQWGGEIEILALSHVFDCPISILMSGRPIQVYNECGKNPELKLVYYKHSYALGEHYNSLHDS


Columns and labels:
[1] = molecular target: T1, Ubp3-FTpA (S. cerevisiae); test: affinity purification with mass spectrometry; FTpA-tagged bait from yeast lysate on rabbit IgG Dynabeads, seven washes, S7 nuclease treatment, TEV elution ("TEV" sample); label-free LC-MS/MS, Otu2 against Ubp3 purification
[2] = molecular target: T2, Otu2-FTpA (S. cerevisiae); test: as above

Row | binding [1] | binding [2] | Binder
1 | binds | – | Bre5 (protein, UniProt P53741 1-515) MGVTVQDICFAFLQNYYERMRTDPSKLAYFYASTAELTHTNYQSKSTNEKDDVLPTVKVTGRENINKFFSRNDAKVRSLKLKLDTIDFQYTGHLHKSILIMATGEMFWTGTPVYKFCQTFILLPSSNGSTFDITNDIIRFISNSFKPYVLTDASLSQSNEENSVSAVEEDKIRHESGVEKEKEKEKSPEISKPKAKKETVKDTTAPTESSTQEKPIVDHSQPRAIPVTKESKIHTETVPSSTKGNHKQDEVSTEELGNVTKLNEKSHKAEKKAAPIKTKEGSVEAINAVNNSSLPNGKEVSDEKPVPGGVKEAETEIKPIEPQVSDAKESGNNASTPSSSPEPVANPPKMTWASKLMNENSDRISKNNTTVEYIRPETLPKKPTERKFEMGNRRDNASANSKNKKKPVFSTVNKDGFYPIYIRGTNGLREEKLRSALEKEFGKVMRITAADNFAVVDFETQKSQIDALEKKKKSIDGIEVCLERKTVKKPTSNNPPGIFTNGTRSHRKQPLKRKD
2 | – | binds | Tma64 (protein, UniProt Q04600 1-565) MFKKEPHIKALSNLKNSERKKLLQTFQKQTNNEEYSFRTSTIKQTNFNGQKSVGTVYTDENNTPILFKEKHKEQLFPTVYSCWEYPALLPIVLTHGFVIEEHLFNGANLMISGSIPPFDPRCKIGTLCGIASKQAPETVLAIGIVELDLPSFDKVIGETGVAVKIIHHFNDGLSKVFKMKLEPPFVLSTQSKDNNISSKQIESSEQIKAVEKEQEDVKEASVDVEEIAEVLDHFTVSDVDYFITRALYYTLTQDKGLELPISASNFISNHIMRNLPPIDHNEVNVKKTSWKKSAKFLKHFEKEGFLKLKGKGDDLTIVGKNTDKDELKNFVPYKLGCSKSATESRESTTSKEKTSGMMYSLTLYKPFNLAKDLLKEVNLASHTYYTSQDIRSAVSQYISVKNLADTKDKGKVIMDDLLFDMVNKKKKVLNASRIIARGEILHPLLTNNFTEFYQIFKSDDTLLFKAPMKGSLPHIKIITEMKIGRKVITRVSNFEVFQVDPESLAADLRKICSGSTTISESQTFKCAEVQVQGPHGQSIIDHLNKLGIPSKWIDFENKLKKKKRK
